According to the supplement of paper PMC9015667:
Where a name gives a salt, the structure may show the parent alone. Some of the results follow. Many values rest on one well or one pass, so single values are uncertain.

Columns and labels:
Assay in all cases: reduction in cell viability relative to untreated/vehicle; higher = more growth inhibition
Details in all cases: 200 nM; 72 h
[1] = test system: M229P (parental melanoma line)
[2] = test system: M229R (matched melanoma line resistant to BRAF inhibitors)
[3] = test system: M238P (parental melanoma line)
[4] = test system: M238R (matched melanoma line resistant to BRAF inhibitors)
[5] = test system: M249P (parental melanoma line)
[6] = test system: M249R (matched melanoma line resistant to BRAF inhibitors)
[7] = test system: UACC62P (parental melanoma line)
[8] = test system: UACC62R (matched melanoma line resistant to BRAF inhibitors)

SMILES | reduction in cell viability [1] [%] | reduction in cell viability [2] [%] | reduction in cell viability [3] [%] | reduction in cell viability [4] [%] | reduction in cell viability [5] [%] | reduction in cell viability [6] [%] | reduction in cell viability [7] [%] | reduction in cell viability [8] [%]
COc1nc(-c2ccc3c(c2)OCO3)n(-c2ccc(NC(=O)CSc3ccccc3)cc2)n1 [Secin H3] | < 0 | < 0 | 24.3 | < 0 | 18.8 | < 0 | < 0 | 7.78
CC[C@H](C)C(=O)O[C@H]1C[C@@H](C)C=C2C=C[C@H](C)[C@H](CC[C@@H]3C[C@@H](O)CC(=O)O3)[C@H]21 [Lovastatin] | < 0 | < 0 | < 0 | < 0 | < 0 | < 0 | < 0 | < 0
CC[C@@]1(O)C[C@H](O[C@H]2C[C@H](N(C)C)[C@H](O[C@H]3C[C@H](O)[C@H](O[C@H]4CCC(=O)[C@H](C)O4)[C@H](C)O3)[C@H](C)O2)c2c(cc3c(c2O)C(=O)c2c(O)cccc2C3=O)[C@H]1C(=O)OC [Aclarubicin] | 19.1 | 20 | 11.3 | 15.5 | 2.26 | 33 | 18.3 | 42.8
O=C(O)CSCC(=O)NC1CCSC1=O (centres undefined) [Erdosteine] | < 0 | < 0 | < 0 | < 0 | < 0 | < 0 | < 0 | < 0
CCN(CC)Cc1ccc2cc(COC(=O)Nc3ccc(C(=O)NO)cc3)ccc2c1 [ITF2357 (Givinostat)] | 5.84 | 26.7 | 32.4 | < 0 | 38.4 | 41 | 31.3 | 56.5
Cn1cc(-c2ccc3nnc(C(F)(F)c4ccc5ncccc5c4)n3n2)cn1 | < 0 | < 0 | < 0 | < 0 | < 0 | < 0 | < 0 | < 0
C#Cc1cccc(Nc2ncnc3cc(OC)c(OCCCCCCC(=O)NO)cc23)c1 | 8.61 | 11.5 | 12.4 | < 0 | 26.1 | 21.7 | 3.86 | 30.6
O=c1cc(N2CCOCC2)oc2c(-c3cccc4c3sc3ccccc34)cccc12 | < 0 | < 0 | < 0 | < 0 | < 0 | < 0 | < 0 | < 0
CO[C@@H]1[C@@H](OC(N)=O)[C@@H](O)[C@H](Oc2ccc3c(O)c(NC(=O)c4ccc(O)c(CC=C(C)C)c4)c(=O)oc3c2C)OC1(C)C [Novobiocin sodium] | < 0 | 3.97 | < 0 | < 0 | < 0 | < 0 | < 0 | < 0
CC1=C(C)C(=O)C(C(CCCCCC(=O)O)c2ccccc2)=C(C)C1=O (racemic) | < 0 | 6.57 | 6.06 | < 0 | < 0 | < 0 | < 0 | < 0
O=C(NC[C@H](O)CO)c1ccncc1Nc1ccc(I)cc1F [Pimasertib] | 29.1 | < 0 | 36.9 | < 0 | 90.7 | 46.4 | 62.6 | 50.1
CC(=O)OCC(=O)[C@@]1(O)[C@H](C)C[C@H]2[C@@H]3C=C(C)C4=Cc5c(cnn5-c5ccccc5)C[C@]4(C)[C@H]3[C@@H](O)C[C@@]21C [Cortivazol] | < 0 | < 0 | < 0 | < 0 | < 0 | < 0 | < 0 | < 0
CN(Cc1cnc2nc(N)nc(N)c2n1)c1ccc(C(=O)N[C@@H](CCC(=O)O)C(=O)O)cc1 [Methotrexate] | 52.9 | 59.2 | 39.4 | < 0 | 45.6 | 26.9 | 82.3 | 74.2
COc1ccc2c3c1O[C@H]1C[C@@H](O)C=C[C@@]31CCN(C)C2 [Galantamine hydrobromide] | < 0 | < 0 | < 0 | < 0 | < 0 | < 0 | < 0 | < 0
COc1cc2ncnc(Nc3ccc(F)c(Cl)c3)c2cc1OCCCN1CCOCC1 [Gefitinib] | < 0 | < 0 | < 0 | < 0 | < 0 | < 0 | 6.14 | < 0
Nc1nc2c(ncn2COC(CO)CO)c(=O)[nH]1 [Ganciclovir] | < 0 | < 0 | < 0 | < 0 | < 0 | < 0 | 0.87 | < 0
CCCNC(=O)Nc1ccc(Oc2ncnc3cc(OC)c(OC)cc23)cc1Cl | < 0 | < 0 | < 0 | < 0 | 7.95 | < 0 | 7.14 | < 0
CCC(=O)N1CCN(c2ccc(-n3c(=O)ccc4cnc5ccc(-c6cnc7ccccc7c6)cc5c43)cc2C(F)(F)F)CC1 [Torin-1] | 32.7 | 33.1 | 35.5 | 31.4 | 20.6 | 47.5 | 34 | 34.4
Cc1cc(O)c2c(c1)C(=O)c1cc(O)cc(O)c1C2=O [Emodin] | < 0 | < 0 | < 0 | < 0 | < 0 | < 0 | < 0 | < 0

Given with tabs: two of the compounds above
SMILES	reduction in cell viability [1] [%]	reduction in cell viability [2] [%]	reduction in cell viability [3] [%]	reduction in cell viability [4] [%]	reduction in cell viability [5] [%]	reduction in cell viability [6] [%]	reduction in cell viability [7] [%]	reduction in cell viability [8] [%]
CO[C@@H]1[C@@H](OC(N)=O)[C@@H](O)[C@H](Oc2ccc3c(O)c(NC(=O)c4ccc(O)c(CC=C(C)C)c4)c(=O)oc3c2C)OC1(C)C [Novobiocin sodium]	< 0	3.97	< 0	< 0	< 0	< 0	< 0	< 0
CC1=C(C)C(=O)C(C(CCCCCC(=O)O)c2ccccc2)=C(C)C1=O (racemic)	< 0	6.57	6.06	< 0	< 0	< 0	< 0	< 0

(further entries)

SMILES | reduction in cell viability [1] [%] | reduction in cell viability [2] [%] | reduction in cell viability [3] [%] | reduction in cell viability [4] [%] | reduction in cell viability [5] [%] | reduction in cell viability [6] [%] | reduction in cell viability [7] [%] | reduction in cell viability [8] [%]
CC[C@H](/C=C/[C@@H](C)[C@H]1CC[C@H]2[C@@H]3CC=C4C[C@@H](O)CC[C@]4(C)[C@H]3CC[C@]12C)C(C)C [Stigmasterol] | < 0 | < 0 | < 0 | < 0 | < 0 | < 0 | 2.15 | < 0
O=C(Nc1cccc(Cl)c1)Nc1ncc(CCNc2ncnc3ccsc23)s1 | < 0 | < 0 | 24.1 | 14.6 | < 0 | < 0 | 15.9 | 41.9
CCCNS(=O)(=O)Nc1ncnc(OCCOc2ncc(Br)cn2)c1-c1ccc(Br)cc1 [Macitentan] | < 0 | < 0 | < 0 | < 0 | < 0 | 3.59 | < 0 | < 0
CCNC(=O)[C@H]1O[C@@H](n2cnc3c(N)nc(NCCc4ccc(CCC(=O)O)cc4)nc32)[C@H](O)[C@@H]1O | < 0 | < 0 | < 0 | < 0 | < 0 | < 0 | < 0 | < 0
N#CC(=Cc1ccc(O)c(O)c1)C(=O)NCc1ccccc1 [Tyrphostin B42] | < 0 | < 0 | < 0 | < 0 | < 0 | < 0 | 14.2 | < 0
CN1CCN(CCCN2c3ccccc3Sc3ccc(C(F)(F)F)cc32)CC1 [Trifluoperazine hydrochloride] | < 0 | < 0 | < 0 | < 0 | < 0 | < 0 | < 0 | < 0
Clc1ccc(-c2nc3sccn3c2/C=N/OCc2ccc(Cl)c(Cl)c2)cc1 | < 0 | < 0 | < 0 | < 0 | < 0 | < 0 | < 0 | < 0
CC(=O)Oc1ccccc1C(=O)Nc1ncc([N+](=O)[O-])s1 [Nitazoxanide] | < 0 | < 0 | < 0 | < 0 | < 0 | < 0 | < 0 | < 0
C/C=C1\NC(=O)[C@H]2CSSCC/C=C/[C@H](CC(=O)N[C@H](C(C)C)C(=O)N2)OC(=O)[C@H](C(C)C)NC1=O [Romidepsin] | 88 | 82.7 | 82.7 | 82.4 | 87.6 | 91.4 | 83.8 | 82.8
CCCCOc1c(C(=O)c2c(F)cc(C)cc2F)c[nH]c2nncc1-2 | < 0 | < 0 | < 0 | < 0 | < 0 | < 0 | < 0 | < 0
CC(C)(C)Cn1c(N)nc2ccc(-c3[nH]c(C(C)(C)C)nc3-c3ccc(F)cc3)nc21 | < 0 | < 0 | < 0 | < 0 | < 0 | < 0 | < 0 | 9.05
COc1cc2c(Oc3ccc(-c4cnc(Nc5ccc(F)cc5)n(C)c4=O)cc3F)ccnc2cc1OCCCN1CCOCC1 | < 0 | < 0 | 36 | 16.1 | < 0 | < 0 | 21.5 | < 0
COc1ccc(CCN(C)CCCOc2ccc(S(=O)(=O)c3c(C(C)C)n(C)c4ccccc34)cc2)cc1OC | < 0 | < 0 | < 0 | < 0 | < 0 | < 0 | < 0 | < 0
Nc1[nH]nc2nnc(-c3c(-c4ccccc4)nn4ccccc34)cc12 | < 0 | < 0 | 4.03 | < 0 | < 0 | < 0 | < 0 | < 0
NC(=O)c1nnn(Cc2cc(Cl)c(C(=O)c3ccc(Cl)cc3)c(Cl)c2)c1N [Carboxyamidotriazole] | < 0 | 14.7 | < 0 | < 0 | < 0 | < 0 | < 0 | < 0
O=C(c1ccccc1)c1ccc2n1CCC2C(=O)O (centres undefined) [Ketorolac] | < 0 | < 0 | < 0 | < 0 | < 0 | < 0 | < 0 | < 0
COc1cc(C(=O)N2CCC(N3CCN(C)CC3)CC2)ccc1Nc1ncc2c(n1)N(C)c1ccccc1C(=O)N2C | 10.9 | < 0 | < 0 | < 0 | 15.1 | 13.7 | 0.42 | < 0
NC(=O)c1ncn([C@@H]2O[C@H](CO)[C@@H](O)[C@H]2O)c1N [Acadesine] | < 0 | < 0 | < 0 | < 0 | < 0 | < 0 | 0.04 | < 0
CC=CC1=C(C(=O)O)N2C(=O)[C@@H](NC(=O)[C@H](N)c3ccc(O)cc3)[C@H]2SC1 [Cefprozil monohydrate] | < 0 | < 0 | < 0 | < 0 | < 0 | < 0 | 12 | < 0
